Data on 31 molecules can be found in the supplement of paper PMC4604168 (melanoma cell lines).

The list shows a part of the results. Single values are uncertain, as repeats are few or missing.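 The apoptosis fraction was the count of cleaved-PARP antibody-stained nuclei relative to all DNA-stained nuclei, imaged in 1,536-well plates. Screening doses were set so most cells survived, and baseline and induced cleaved-PARP levels vary greatly across cell lines.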

This test relates to WM3526. Nature of the test: cleaved PARP positive nuclei fraction relative to DMSO control; melanoma cells; higher = more apoptosis. Particulars: library dose: low library concentration; 72 h.
On to `C[C@]12O[C@H](C[C@]1(O)CO)n1c3ccccc3c3c4c(c5c6ccccc6n2c5c31)CNC4=O` [Lestaurtinib] + CCN(CC)CCCCNc1ncc2cc(-c3cc(OC)cc(OC)c3)c(NC(=O)NC(C)(C)C)nc2n1 [PD173074] (first compound 0.004 µM, partner dose 0.1 µM), for which the “cleaved PARP positive nuclei fraction” value came out at 96.3%.
As for `N#Cc1c(O)c2c(-c3ccc(-c4ccccc4O)cc3)csc2[nH]c1=O` + O=C(Oc1ccc([N+](=O)[O-])cc1)N1CCC(C(O)(c2ccc3c(c2)OCO3)c2ccc3c(c2)OCO3)CC1 [JZL184] (first compound 2 µM, partner dose 1 µM), the figure is 221%; as for `C[C@]12O[C@H](C[C@]1(O)CO)n1c3ccccc3c3c4c(c5c6ccccc6n2c5c31)CNC4=O` [Lestaurtinib] + O=c1cc(-c2cccc3c2Sc2ccccc2S3)oc(N2CCOCC2)c1 [KU55933] (first compound 0.004 µM, partner dose 1 µM), 350%; as for `CCc1ccc(CCOc2ccc(CC3SC(=O)NC3=O)cc2)nc1` (stereo unspecified) [pioglitazone] + O=C(Oc1ccc([N+](=O)[O-])cc1)N1CCC(C(O)(c2ccc3c(c2)OCO3)c2ccc3c(c2)OCO3)CC1 [JZL184] (first compound 2 µM, partner dose 1 µM), 84.4%.
As for `COc1cc2c(Oc3ccc4[nH]c(C)cc4c3F)ncnc2cc1OCCCN1CCCC1` [cediranib] + Cc1cc(SCc2sc(-c3ccc(C(F)(F)F)c(F)c3)nc2C)ccc1OCC(=O)O [GW0742] (first compound 0.4 µM, partner dose 2 µM), the figure is 58%; as for `Cc1cc(SCc2sc(-c3ccc(C(F)(F)F)c(F)c3)nc2C)ccc1OCC(=O)O` + O=C(Oc1ccc([N+](=O)[O-])cc1)N1CCC(C(O)(c2ccc3c(c2)OCO3)c2ccc3c(c2)OCO3)CC1 [JZL184] (first compound 2 µM, partner dose 1 µM), 69.4%; as for `Cc1cc(SCc2sc(-c3ccc(C(F)(F)F)c(F)c3)nc2C)ccc1OCC(=O)O` + COc1cc(N2CCC(N3CCN(C)CC3)CC2)ccc1Nc1ncc(Cl)c(Nc2ccccc2S(=O)(=O)C(C)C)n1 [NVP-TAE684] (first compound 2 µM, partner dose 0.08 µM), 76.2%.
In the case of `C[C@]12O[C@H](C[C@]1(O)CO)n1c3ccccc3c3c4c(c5c6ccccc6n2c5c31)CNC4=O` [Lestaurtinib] + COC(=O)c1sccc1S(=O)(=O)Nc1ccc(Nc2ccccc2)cc1OC [GSK0660] (first compound 0.004 µM, partner dose 1 µM), the “cleaved PARP positive nuclei fraction” value was 84.5%.
As for `C[C@]12O[C@H](C[C@]1(O)CO)n1c3ccccc3c3c4c(c5c6ccccc6n2c5c31)CNC4=O` [Lestaurtinib] + CC1(C)NC(=O)N(c2ccc([N+](=O)[O-])c(C(F)(F)F)c2)C1=O [nilutamide] (first compound 0.004 µM, partner dose 1 µM), the figure is 68.7%; as for `O=C1NC(=O)/C(=C/c2ccc(-c3ccc(F)cc3O)o2)S1` + O=C(Oc1ccc([N+](=O)[O-])cc1)N1CCC(C(O)(c2ccc3c(c2)OCO3)c2ccc3c(c2)OCO3)CC1 [JZL184] (first compound 1 µM, partner dose 1 µM), 70.6%.
As for `Oc1cc(-c2nc(-c3ccccc3)[nH]c2-c2ccncc2)ccc1Cl` + O=C(Oc1ccc([N+](=O)[O-])cc1)N1CCC(C(O)(c2ccc3c(c2)OCO3)c2ccc3c(c2)OCO3)CC1 [JZL184] (first compound 0.2 µM, partner dose 1 µM), the figure is 142%; as for `C[C@]12O[C@H](C[C@]1(O)CO)n1c3ccccc3c3c4c(c5c6ccccc6n2c5c31)CNC4=O` [Lestaurtinib] + O=S(=O)(c1ccccc1)N(CC(F)(F)F)c1ccc(C(O)(C(F)(F)F)C(F)(F)F)cc1 [T0901317] (first compound 0.004 µM, partner dose 1.4 µM), 63.9%; as for `NCC(=O)Nc1ccc(-n2nc(C(F)(F)F)cc2-c2ccc3c(ccc4ccccc43)c2)cc1` + O=C(Oc1ccc([N+](=O)[O-])cc1)N1CCC(C(O)(c2ccc3c(c2)OCO3)c2ccc3c(c2)OCO3)CC1 [JZL184] (first compound 1 µM, partner dose 1 µM), 97.6%.
As to `C[C@@H]1CCN(C(=O)CC#N)C[C@@H]1N(C)c1ncnc2[nH]ccc12` + C/C(O)=C(\C#N)C(=O)Nc1cc(Br)ccc1Br [LFM-A13] (first compound 1 µM, partner dose 2 µM), the “cleaved PARP positive nuclei fraction” value came out at 33.3%.
As for `C[As](C)SC[C@H](NC(=O)CC[C@H](N)C(=O)O)C(=O)NCC(=O)O` [Darinaparsin] + O=C(Nc1ccccc1)c1cc([N+](=O)[O-])ccc1Cl [GW9662] (first compound 0.4 µM, partner dose 2 µM), the figure is 27.8%; as for `C[C@]12O[C@H](C[C@]1(O)CO)n1c3ccccc3c3c4c(c5c6ccccc6n2c5c31)CNC4=O` [Lestaurtinib] + O=C(O)c1ccc(-c2c[nH]c3ncc(-c4ccccc4)cc23)cc1C1CCCC1 [GSK650394] (first compound 0.004 µM, partner dose 0.16 µM), 358%.
As to `C[C@]12O[C@H](C[C@]1(O)CO)n1c3ccccc3c3c4c(c5c6ccccc6n2c5c31)CNC4=O` [Lestaurtinib] + Oc1cc(-c2nc(-c3ccccc3)[nH]c2-c2ccncc2)ccc1Cl [L779450] (first compound 0.004 µM, partner dose 0.2 µM), the “cleaved PARP positive nuclei fraction” value came out at 444%.
The same measure for `COc1ccc2c(c1)CCC1C2CCC2(C)C(NCCCCCCN3C(=O)C=CC3=O)CCC12` (stereo unspecified) + C/C(O)=C(\C#N)C(=O)Nc1cc(Br)ccc1Br [LFM-A13] (first compound 0.4 µM, partner dose 2 µM): 78.1%.
The same measure for `Cc1cc(SCc2sc(-c3ccc(C(F)(F)F)c(F)c3)nc2C)ccc1OCC(=O)O` + C/C(O)=C(\C#N)C(=O)Nc1cc(Br)ccc1Br [LFM-A13] (first compound 2 µM, partner dose 2 µM): 191%.
Consider `COC(=O)c1sccc1S(=O)(=O)Nc1ccc(Nc2ccccc2)cc1OC` + C/C(O)=C(\C#N)C(=O)Nc1cc(Br)ccc1Br [LFM-A13] (first compound 1 µM, partner dose 2 µM), for which the “cleaved PARP positive nuclei fraction” value amounted to 138%.
The same measure for `O=C(O)c1ccc(-c2c[nH]c3ncc(-c4ccccc4)cc23)cc1C1CCCC1` + O=C(Oc1ccc([N+](=O)[O-])cc1)N1CCC(C(O)(c2ccc3c(c2)OCO3)c2ccc3c(c2)OCO3)CC1 [JZL184] (first compound 0.16 µM, partner dose 1 µM): 33.3%; for `C[C@@H]1CCN(C(=O)CC#N)C[C@@H]1N(C)c1ncnc2[nH]ccc12` + Cc1cc(SCc2sc(-c3ccc(C(F)(F)F)c(F)c3)nc2C)ccc1OCC(=O)O [GW0742] (first compound 1 µM, partner dose 2 µM): 51.1%; for `O=C(Nc1cccc(Cl)c1)Nc1ncc(CCNc2ncnc3ccsc23)s1` + Cc1cc(SCc2sc(-c3ccc(C(F)(F)F)c(F)c3)nc2C)ccc1OCC(=O)O [GW0742] (first compound 0.0008 µM, partner dose 2 µM): 55.2%.
The same measure for `C[C@]12O[C@H](C[C@]1(O)CO)n1c3ccccc3c3c4c(c5c6ccccc6n2c5c31)CNC4=O` [Lestaurtinib] + COc1cc2ncnc(Nc3ccc(Oc4ccccc4)cc3)c2cc1OC [SrcI1] (first compound 0.004 µM, partner dose 2 µM): 77.9%; for `C[As](C)SC[C@H](NC(=O)CC[C@H](N)C(=O)O)C(=O)NCC(=O)O` [Darinaparsin] + COc1ccc(COc2ccc(Cc3cnc(N)nc3N)cc2OC)cc1 [GW2580] (first compound 0.4 µM, partner dose 1 µM): 186%.
For `C[C@]12O[C@H](C[C@]1(O)CO)n1c3ccccc3c3c4c(c5c6ccccc6n2c5c31)CNC4=O` [Lestaurtinib] + COc1ccc(-c2ccc3c(N4CCOCC4)nc(N4C[C@@H](C)O[C@@H](C)C4)nc3n2)cc1CO [KU0063794] (first compound 0.004 µM, partner dose 0.02 µM), the “cleaved PARP positive nuclei fraction” value amounted to 110%.
The same measure for `O=S(=O)(c1ccccc1)N(CC(F)(F)F)c1ccc(C(O)(C(F)(F)F)C(F)(F)F)cc1` + Cc1cc(SCc2sc(-c3ccc(C(F)(F)F)c(F)c3)nc2C)ccc1OCC(=O)O [GW0742] (first compound 1.4 µM, partner dose 2 µM): 77.4%; for `COc1ccc(COc2ccc(Cc3cnc(N)nc3N)cc2OC)cc1` + Cc1cc(SCc2sc(-c3ccc(C(F)(F)F)c(F)c3)nc2C)ccc1OCC(=O)O [GW0742] (first compound 1 µM, partner dose 2 µM): 56.1%; for `C[As](C)SC[C@H](NC(=O)CC[C@H](N)C(=O)O)C(=O)NCC(=O)O` [Darinaparsin] + CCc1ccc(CCOc2ccc(CC3SC(=O)NC3=O)cc2)nc1 [pioglitazone] (first compound 0.4 µM, partner dose 2 µM): 82.3%.
As to `O=C(Oc1ccc([N+](=O)[O-])cc1)N1CCC(C(O)(c2ccc3c(c2)OCO3)c2ccc3c(c2)OCO3)CC1` + CC(C)CCN1c2nc(Nc3cc(F)c(O)c(F)c3)ncc2N(C)C(=O)C1C [BID1870] (first compound 1 µM, partner dose 0.2 µM), the “cleaved PARP positive nuclei fraction” value came out at 142%.
As for `CO[C@H]1C[C@@H]2CC[C@@H](C)[C@@](O)(O2)C(=O)C(=O)N2CCCC[C@H]2C(=O)O[C@H]([C@H](C)C[C@@H]2CC[C@@H](OCCO)[C@H](OC)C2)CC(=O)[C@H](C)/C=C(\C)[C@@H](O)[C@@H](OC)C(=O)[C@H](C)C[C@H](C)/C=C/C=C/C=C/1C` [everolimus] + Cc1cc(SCc2sc(-c3ccc(C(F)(F)F)c(F)c3)nc2C)ccc1OCC(=O)O [GW0742] (first compound 0.02 µM, partner dose 2 µM), the figure is 70.9%.
